# Measured values taken from patent publication US20250032493A1, “Methods for Treating Diseases Using MALT1 Inhibitors” (RARIFIED BIOSCIENCES, INC., priority 2021, published 2025).
# At least one read-out could not be matched to a standard name with certainty.
# Assay: Rat CIA model: plasma pharmacokinetics
# Conditions: of the 24 hours post-administration
SMILES,time blood/plasma concentration above the IC90 value (10 mg/kg),time blood/plasma concentration above the IC90 value (30 mg/kg),time blood/plasma concentration above the IC90 value (3 mg/kg)
O=C(Nc1ccnc(C(F)(F)F)c1)Nc1cnn2ccc(Cl)c2c1C1CC1 [REO-703],about 6 hours,,
CO[C@@H](C)c1c(Nc2ccc([C@H](N(C)C(=O)C3CCS(=O)(=O)CC3)C(F)(F)F)cc2)cnc2cc(Cl)nn12 [REO-528],more than 12 hours,24 h,
CN(C(=O)C1CCS(=O)(=O)CC1)[C@@H](c1ccc(Nc2cnc3cccnc3c2C2CC2)cc1)C(F)(F)F [REO-538],~24 h,,more than 6 hours
